Measurements as given in US10716814B2, “Mesenchymal stem cells and uses therefor” (Mesoblast International Sárl, priority 2004, dated 2020).
Some entries share one result that the patent states for a list of compounds.

System: PHA-treated PBMCs
Test: Proliferation of PHA-treated PBMCs, 3H thymidine incorporation
Type: cell-based, human
Conditions: MSC containing cultures

Structure (SMILES)	increase in (3H) thymidine incorporation vs controls without inhibitors (indomethacin 4 μM)	increase in (3H) thymidine incorporation vs controls without inhibitors (NS-398 5 μM)
COc1ccc2c(c1)c(CC(=O)O)c(C)n2C(=O)c1ccc(Cl)cc1 [indomethacin]	> 70%	–
CS(=O)(=O)Nc1ccc([N+](=O)[O-])cc1OC1CCCCC1 [NS-398]	–	> 70%
